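Plate-reader measure of the Venus reporter marking one vaccinia stage in infected cells (the cell line is not named here); read time unknown. The test concentration is not given here. Percent change in Venus reporter signal; lower (more negative) values mean stronger inhibition of that viral stage.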

Values are in %. How 0% and 100% were set is not given here. Common to all entries: measured here: Venus reporter, other viral stage. Part of the compounds only, not a random draw; the main read-out is not listed here.

structure | activity change (Venus) (%)
Cc1cccc(S(=O)(=O)N2CC[C@@H]3[C@H]2c2cc(Br)ccc2N(C)[C@H]3CO)c1 | -26.3
COc1ccc(S(=O)(=O)N(C)C[C@@H]2Oc3c(NC(=O)Nc4cccc5ccccc45)cccc3C(=O)N([C@@H](C)CO)C[C@@H]2C)cc1 | -33.53
COc1ccc(C#Cc2ccc([C@H]3[C@H]4CN(C)CCCCN4[C@H]3CO)cc2)cc1 | -48.09
Cc1ccc(S(=O)(=O)Nc2ccc3c(c2)C(=O)N([C@@H](C)CO)C[C@@H](C)[C@H](CN(C)Cc2ccc(C(F)(F)F)cc2)OCCCC[C@H](C)O3)cc1 | -73.77
COc1ccccc1C#Cc1ccc([C@@H]2[C@@H](CO)N(C(=O)C3CCCCC3)[C@H]2C#N)cc1 | -18.64
Cc1ccc(S(=O)(=O)Nc2ccc3c(c2)CC(=O)N([C@H](C)CO)C[C@H](C)[C@@H](CN(C)Cc2ccc4c(c2)OCO4)O3)cc1 | -81.89
C[C@H]1CN([C@@H](C)CO)C(=O)c2cccc(NC(=O)Nc3ccc4c(c3)OCO4)c2O[C@H]1CN(C)S(=O)(=O)c1ccc(Cl)cc1 | -44.88
Cc1ccc(-c2ccc3c(c2)O[C@H](CN(C)C(=O)Nc2ccc(C(F)(F)F)cc2)[C@@H](C)CN([C@@H](C)CO)S3(=O)=O)cc1 | -46.15
C[C@@H]1CN([C@H](C)CO)C(=O)c2ccccc2-c2ccccc2CO[C@@H]1CN(C)Cc1ccccc1C(F)(F)F | -51.97
O=C(Nc1cc(Cl)cc(Cl)c1)N[C@H]1CC[C@@H](CCNS(=O)(=O)c2cccc(F)c2)O[C@@H]1CO | -47.87
C[C@H]1CCCCO[C@H](CN(C)Cc2ccccc2)[C@@H](C)CN([C@@H](C)CO)C(=O)c2cc(NC(=O)Nc3cccc4ccccc34)ccc2O1 | -53.59
N#C[C@@H]1[C@H](c2ccc(C#Cc3ccccc3F)cc2)[C@H](CO)N1C(=O)C1CCOCC1 | -27.72
COc1ccc(CNC(=O)N(C)C[C@@H]2OCc3ccccc3-c3c(n(C)c4ccccc34)C(=O)N([C@H](C)CO)C[C@@H]2C)cc1 | -30.9
C[C@@H]1CN([C@H](C)CO)C(=O)c2cc(C#Cc3cccc(F)c3)cnc2O[C@H]1CN(C)CC1CCCC1 | -73.24
CC(C)NC(=O)Nc1ccc2c(c1)C(=O)N([C@@H](C)CO)C[C@H](C)[C@@H](CN(C)Cc1ccc(C(F)(F)F)cc1)OCCCC[C@H](C)O2 | -54.27
C[C@@H]1CN([C@H](C)CO)C(=O)Cc2cc(NC(=O)CCCCCC(=O)Nc3ccccc3N)ccc2O[C@@H]1CN(C)CC1CCCCC1 | -33.5
C[C@@H]1CN([C@@H](C)CO)C(=O)c2c(c3ccccc3n2C)-c2ccccc2CO[C@H]1CN(C)C(=O)Nc1ccc2c(c1)OCO2 | -49.93
COc1ccc(C#Cc2ccc([C@@H]3[C@H]4CN(C(=O)Cc5cccnc5)CCCCN4[C@H]3CO)cc2)cc1 | -36.88
C[C@H]1CN([C@@H](C)CO)S(=O)(=O)c2ccc(C#Cc3cccc(F)c3)cc2O[C@@H]1CN(C)S(=O)(=O)c1cn(C)cn1 | -70.75
O=C(Nc1ccccc1)N1CC(=O)N2[C@H](C1)[C@@H](c1ccc(C#CC3CC3)cc1)[C@@H]2CO | -42.45
COc1ccc(S(=O)(=O)Nc2ccc3c(c2)C(=O)N([C@H](C)CO)C[C@@H](C)[C@H](CN(C)S(=O)(=O)c2ccc(C)cc2)OCCCC[C@@H](C)O3)cc1 | -43.43
COc1ccc([Si](C)(C)[C@@H]2[C@@H](CCO)O[C@]3(C(=O)N(Cc4ccccc4)c4ccc(N5CCCCC5=O)cc43)[C@H]2C)cc1 | -73.25
CCC(=O)N1CC(=O)N2[C@@H](CO)[C@@H](c3ccc(C#CC4CCCCC4)cc3)[C@@H]2C1 | -58.35
Cc1ccc(S(=O)(=O)N(C)C[C@H]2OCCCC[C@@H](C)Oc3ccc(NS(=O)(=O)c4ccccc4)cc3C(=O)N([C@@H](C)CO)C[C@H]2C)cc1 | -24.68
CC(C)CC#Cc1ccc2c(c1)O[C@@H](CN(C)C(=O)C1CCCCC1)[C@@H](C)CN([C@H](C)CO)S2(=O)=O | -32.25
O=C(Nc1ccc(C(F)(F)F)cc1)N1C[C@@H]2N[C@H](C1)C2c1ccc(-c2cccc(F)c2)cc1 (some centres unmarked) | -93.7
Cc1noc(C)c1NC(=O)N(C)C[C@@H]1Oc2cc(C#CCC3CCCC3)ccc2S(=O)(=O)N([C@H](C)CO)C[C@@H]1C | -53.11
Cc1noc(C)c1S(=O)(=O)Nc1ccc2c(c1)C(=O)N([C@H](C)CO)C[C@@H](C)[C@H](CN(C)Cc1ccccc1)OCCCC[C@H](C)O2 | -33.49
Cc1ccc(S(=O)(=O)Nc2ccc3c(c2)C(=O)N([C@H](C)CO)C[C@H](C)[C@H](CN(C)C(=O)NC2CCCCC2)OCCCC[C@H](C)O3)cc1 | -38.72
CC(C)NC(=O)Nc1ccc2c(c1)CC(=O)N([C@@H](C)CO)C[C@@H](C)[C@H](CN(C)Cc1ccc(Oc3ccccc3)cc1)O2 | -40.34
Cc1ccc(-c2ccc3c(c2)O[C@@H](CN(C)Cc2ccccn2)[C@H](C)CN([C@H](C)CO)S3(=O)=O)cc1 | -36.7
CCCC#Cc1ccc([C@H]2[C@@H](CO)N3CCCCN(S(=O)(=O)c4ccccc4F)C[C@H]23)cc1 | -33.02
C[C@H](CO)N1C[C@H](C)[C@H](CN(C)S(=O)(=O)c2ccc(F)cc2)OCCCC[C@H](C)Oc2ccc(NS(=O)(=O)c3cccs3)cc2C1=O | -33.79
CC(C)CC#Cc1ccc2c(c1)O[C@H](CN(C)Cc1ccccc1F)[C@@H](C)CN([C@H](C)CO)S2(=O)=O | -25.96
O=C(C[C@H]1CC[C@H]2[C@@H](COC[C@H](O)CN2C(=O)Nc2ccc(Cl)c(Cl)c2)O1)NCc1ccc(F)cc1 | -56.6
C[C@@H]1CN([C@@H](C)CO)C(=O)c2cccc(NC(=O)Nc3ccc(C(F)(F)F)cc3)c2O[C@@H]1CN(C)Cc1ccc(C(F)(F)F)cc1 | -57.18
C[C@H]1CN([C@@H](C)CO)C(=O)c2cccc(NC(=O)c3nc4ccccc4s3)c2O[C@H]1CN(C)C(=O)Nc1ccc(C(F)(F)F)cc1 | -44.85
C[C@@H]1CCCCO[C@@H](CN(C)C(=O)NC2CCCCC2)[C@H](C)CN([C@H](C)CO)C(=O)c2cc(NS(=O)(=O)c3ccc(F)cc3)ccc2O1 | -65.01
COc1ccc(C#Cc2ccc([C@H]3[C@H]4CN(C(=O)c5ccncc5)CCCCN4[C@H]3CO)cc2)cc1 | -72.34
C[C@@H]1CCCCO[C@H](CN(C)Cc2ccc3c(c2)OCO3)[C@H](C)CN([C@H](C)CO)C(=O)c2cc(NC(=O)Nc3ccc(F)cc3)ccc2O1 | -54.39
C[C@H]1CN([C@@H](C)CO)C(=O)Cc2cc(NS(=O)(=O)c3cccs3)ccc2O[C@@H]1CN(C)Cc1ccc(-c2ccccc2)cc1 | -38.54
C[C@@H]1CN([C@H](C)CO)C(=O)Cc2cc(NC(=O)C3CCCCC3)ccc2O[C@H]1CN(C)Cc1ccc(Oc2ccccc2)cc1 | -28.52

The first 3 entries again:

- Cc1cccc(S(=O)(=O)N2CC[C@@H]3[C@H]2c2cc(Br)ccc2N(C)[C@H]3CO)c1 : activity change (Venus) -26.3%
- COc1ccc(S(=O)(=O)N(C)C[C@@H]2Oc3c(NC(=O)Nc4cccc5ccccc45)cccc3C(=O)N([C@@H](C)CO)C[C@@H]2C)cc1 : activity change (Venus) -33.53%
- COc1ccc(C#Cc2ccc([C@H]3[C@H]4CN(C)CCCCN4[C@H]3CO)cc2)cc1 : activity change (Venus) -48.09%

Source: PubChem BioAssay AID1053133 (Broad Institute, 2014).